Taken from: PubChem BioAssay AID1259308 (NCATS, 2017)
In all, the deposit lists about 59,000 reagents; shown is a part drawn at random. About 1,510 of all reagents (2.6%) count as active. 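Calls use total luciferase alone and ignore viability, so some active siRNAs may act by altering cell number.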 Reagents against one gene are numbered here. Further read-outs or replicates are left out here.

Purpose: 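Knock-downs that increase output of a recombinant reporter protein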 (primary screen)
Cell system: human HEK293 embryonic kidney cells stably expressing firefly luciferase (HEK-CMV-Luc2-Hygro)
Knock-down reagent: single siRNA against human genes, 0.8 pmol siRNA per well
Timing: 72 h
Detection: 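Reporter luminescence and viable-cell signal on separate replicate plates, given as percent of non-targeting control and median/MAD z-scores, plus per-cell luciferase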
Reading the numbers: total luciferase, z-score and total luciferase, % of control: higher = more reporter protein produced
Call rule: 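An siRNA counts as active if its total luciferase robust z-score exceeds 3; genes with two or more such siRNAs out of three were retested with fresh siRNAs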
Calls: active = raised luciferase; inactive = no rise

For NAGK #1 the deposit lists total luciferase, z-score -0.78; total luciferase, % of control 66.4; inactive.
Against NAGK #2, the entry reads total luciferase, z-score 0.313; total luciferase, % of control 88.1; inactive.
NAGK #3 gave total luciferase, z-score -0.671; total luciferase, % of control 68.5; inactive.
With knock-down of ARPC5L #1 the results were total luciferase, z-score 2.51; total luciferase, % of control 132; inactive.
Depletion of ARPC5L #2 gave: total luciferase, z-score -0.00763; total luciferase, % of control 81.7; inactive.
With knock-down of ARPC5L #3, the screen gave total luciferase, z-score -0.128; total luciferase, % of control 79.3; inactive.
Depletion of OLFML3 #1 gave: total luciferase, z-score 0.345; total luciferase, % of control 88.7; inactive.
For OLFML3 #2 the deposit lists total luciferase, z-score -0.91; total luciferase, % of control 63.8; inactive.
For OLFML3 #3 the deposit lists total luciferase, z-score 0.503; total luciferase, % of control 91.9; inactive.
MACROH2A1 #1 gave total luciferase, z-score -0.353; total luciferase, % of control 74.9; inactive.
MACROH2A1 #2 scored total luciferase, z-score -0.241; total luciferase, % of control 77.1; inactive.
Depletion of MACROH2A1 #3 resulted in: total luciferase, z-score 2.32; total luciferase, % of control 128; inactive.
Knock-down of EIF2AK3 #1 gave: total luciferase, z-score 0.0481; total luciferase, % of control 82.8; inactive.
Depletion of EIF2AK3 #2 came out at: total luciferase, z-score 0.658; total luciferase, % of control 95; inactive.
After knock-down of EIF2AK3 #3, the record shows total luciferase, z-score -0.5; total luciferase, % of control 71.9; inactive.
MESD #1 gave total luciferase, z-score -0.343; total luciferase, % of control 75.1; inactive.
Against MESD #2 the deposit lists total luciferase, z-score 0.516; total luciferase, % of control 92.1; inactive.
For MESD #3 the deposit lists total luciferase, z-score -1.97; total luciferase, % of control 42.7; inactive.

Copied from the entries so far (2 entries):
EIF2AK3 #1 — total luciferase, z-score: 0.0481; total luciferase, % of control: 82.8; activity call: inactive
EIF2AK3 #2 — total luciferase, z-score: 0.658; total luciferase, % of control: 95; activity call: inactive

Continued.
MIR3171HG #1 showed total luciferase, z-score -0.606; total luciferase, % of control 69.8; inactive.
After knock-down of MIR3171HG #2, the record shows total luciferase, z-score -0.707; total luciferase, % of control 67.8; inactive.
Depletion of MIR3171HG #3 gave: total luciferase, z-score 0.74; total luciferase, % of control 96.6; inactive.
After knock-down of WNT2 #1, the screen gave total luciferase, z-score 1.29; total luciferase, % of control 108; inactive.
After knock-down of WNT2 #2, the screen gave total luciferase, z-score 1.76; total luciferase, % of control 117; inactive.
With knock-down of WNT2 #3 the results were total luciferase, z-score 3.97; total luciferase, % of control 161; active.
After knock-down of NUP62 #1, the screen gave total luciferase, z-score -1.28; total luciferase, % of control 56.4; inactive.
NUP62 #2 scored total luciferase, z-score -3.63; total luciferase, % of control 9.74; inactive.
Knock-down of NUP62 #3 resulted in: total luciferase, z-score -2.66; total luciferase, % of control 29; inactive.
MAP3K4 #1 gave total luciferase, z-score -0.314; total luciferase, % of control 75.6; inactive.
MAP3K4 #2 gave total luciferase, z-score -0.115; total luciferase, % of control 79.6; inactive.
Depletion of MAP3K4 #3 came out at: total luciferase, z-score 1.04; total luciferase, % of control 103; inactive.
After knock-down of KCNA1 #1, the screen gave total luciferase, z-score -0.565; total luciferase, % of control 70.7; inactive.
Against KCNA1 #2, the entry reads total luciferase, z-score 0.0846; total luciferase, % of control 83.6; inactive.
Depletion of KCNA1 #3 came out at: total luciferase, z-score 1.22; total luciferase, % of control 106; inactive.
